1 compound from patent US20240299380A1, “APPLICATION OF COMPOUND IN PREPARATION OF DRUG FOR TREATING MYELOFIBROSIS AND RELATED SYMPTOMS/SIGNS THEREOF, AND USE OF COMPOUND” (Betta Pharmaceuticals Co., Ltd, priority 2021, published 2024) can be followed below.

The data set relates to SET-2 cells with JAK2V617F activation mutation. Kind of data set: CTG cell proliferation assay, SET-2 cells. In kind it is cell-based, human. The protocol:
The effects of compound 1 on proliferation of human myeloproliferative tumor cells HEL and SET-2 cells with JAK2V617F activation mutation were tested using CTG assay in this example to evaluate half inhibitory rate (IC50) of compound 1 on HEL and SET-2 cell proliferation.
• a) HEL cells were cultured in RPMI 1640 medium containing 1% PS and 10% FBS. […] The cells were incubated in a humidified incubator with 5% carbon dioxide (CO2) at 37° C.
• a) Cells were harvested upon reaching a certain density. • b) Cells were resuspended in corresponding medium with a certain density. • c) 30 μL of cell suspension was added into each well of a 384-well plate. For HEL, the density was 1800 cells/well, and for SET-2, 2000 cells/well. • d) Cells were incubated overnight in a humidified incubator with 5% CO2 at 37° C.
The compounds were diluted with DMSO 6.67 fold from 20 mM to 3 mM, then 3-fold serial dilutions were conducted to make 10 concentrations for each compound. Staurosporine was diluted with DMSO 6.67 fold from 20 mM to 3 mM, followed by 3-fold serial dilutions to make 10 concentrations. The vehicle control consisted of 100% DMSO, and the positive control was 3 mM Staurosporine.
• a) 30 μL CTG reagent (CelltiterGlo kit) was added to each well, and the plate was subjected to orbital shaking for 2 minutes, then incubated at room temperature in the dark for 30 minutes. • b) Luminescence values were obtained using Envision.
IC50 (the half maximal inhibitory concentration) was calculated with GraphPad Prism 8 software and following nonlinear fitting formula: […]
LUMHigh is the average value of 0.33% DMSO wells, LUMempd is the value of each well of the compound, LUMLow is the average value of 10 μM Staurosporine wells.

The mark [1] stands for this setting: curve fit parameter (inhibition).

For `Cc1nc2ncc(-c3cn(C)c(=O)c4[nH]ccc34)nc2n1Cc1ccc(C(F)(F)F)cc1` [Compound 1, 6-methyl-4-(2-methyl-1-(4-(trifluoromethyl)benzyl)-1H-imidazo[4,5-b]pyrazin-6-yl)-1H-py rrolo[2,3-c]pyridin-7(6H)-one], the Hillslope (curve fit parameter) stood at 1.6. Under setting [1], this compound displayed a Bottom of 4.7 and a Top of 104.6.
